Measured values: patent publication US11059843B2, “Stevioside M crystal form, preparation method therefor and use thereof” (ZHUCHENG HAOTIAN PHARM CO., LTD., priority 2017, dated 2021)
Some of these results come from one statement about several compounds together. For at least one compound, name, drawing or mass did not settle the structure.

Assay: Water solubility / powder dissolution profile
Assay type: physicochemical
Conditions: relative to stevioside M
Method: The crystal form A of stevioside M prepared in the above examples has good reproducibility and is stable in water solubility, and has a maximum solubility of about 3 mg/mL, and the equilibrium solubility is about 2 mg/mL at 24 hours. The powder dissolution profiles of the two batches of crystal form A of stevioside M prepared by the examples are shown in FIG. 11. The water solubility of crystal form A is similar to that of the stevioside D-stevioside M amorphous composition (about 3 mg/mL) disclosed in Patent CN 105722533 A, and both of which can stably increase the water solubility by 2-3 times.

With `C=C1C[C@@]23CCC4[C@](C)(C(=O)OC5OC(CO)C(O)C(OC6OC(CO)C(O)C(O)C6O)C5OC5OC(CO)C(O)C(O)C5O)CCC[C@@]4(C)[C@@H]2CCC1(OC1OC(CO)C(O)C(OC2OC(CO)C(O)C(O)C2O)C1OC1OC(CO)C(O)C(O)C1O)C3` (stereo partly drawn) [crystal form A of stevioside M, 13-[(2-O-β-D-pyranoglucosyl-3-O-β-D-pyranoglucosyl-β-D-pyranoglucosyl)oxyl]-ent-kauran-16-en-19-oic acid-[(2-O-β-D-pyranoglucosyl-3-O-β-D-pyranoglucosyl-β-D-pyranoglucosyl) ester]] as the compound, how does the “increase of water solubility” value read?
The value was 2-3 times.
